Construct, isoform or probe ends are uncertain for at least one entry. A negative result means that nothing was seen under these conditions.

The target in this data set is RR2 (PceP), OmpR-family response regulator of TCS2 (UniProt A0A1D7TJV3). Nature of the data set: EMSA. Conditions: EMSA: 10 mM HEPES pH 7.6, 2 mM MgCl2, 200 mM KCl, 0.1 mM EDTA, 5 mM DTT, 10% glycerol, 50 ug/ul Ficoll 70, 250 ng poly(dI/dC), 2.5 pmol DNA in 15 ul; recombinant protein; protein details: Twin-Strep; label: 6-FAM (T982); probe letters rebuilt from the primers and the genome. A general note: In EMSA bound probe runs differently from free probe, usually more slowly.

As for “GCCTTTAGTTCCAGATAAGCCTATCGACTTTGGAGTAACAGAATTTTGTGAAACATGTAAAAAATGTGCACGTGAGTGTCCTTCAAAAGCAATTACTGAAGGTCCAAGAACTTTTGAAGGACGAAGTATTCATAATCAATCAGGTAAATTACAGTGGCAAAATGACTATAATAAATGCTTAGGTTATTGGCCGGAATCTGGTGGATATTGTGGCGGGCC (double strand) [pceA structural gene fragment]”, the binding result is reported as “no binding”.

(Values after PMC7755780, “Tetrachloroethene respiration in Sulfurospirillum species is regulated by a two‐component system as unraveled by comparative genomics, transcriptomics, and regulator binding studies”.)
